Assay results reported in PMC7979765, “trans-Translation inhibitors bind to a novel site on the ribosome and clear Neisseria gonorrhoeae in vivo” (Nature Communications, 2021).
Where “and” joins values, the source holds several entries; their conditions need not be identical. Equal values may be shown once. Further values from the same series stand in other lists.

Test system: N. gonorrhoeae strain H041
Experiment: In vivo efficacy in the gonorrhea mouse model
Conditions: individual mice, 2.00E+01 = no CFU/mL recovered, limit of detection

SMILES	mouse cfu (Day 0, GEN, listed as GEN)	mouse cfu (Day 1, GEN, listed as GEN)	mouse cfu (Day 2, GEN, listed as GEN)	mouse cfu (Day 3, GEN, listed as GEN)	mouse cfu (Day 4, GEN, listed as GEN)	mouse cfu (Day 0, MBX-4132 10 MPK, 10 mg/kg)	mouse cfu (Day 1, MBX-4132 10 MPK, 10 mg/kg)	mouse cfu (Day 2, MBX-4132 10 MPK, 10 mg/kg)	mouse cfu (Day 3, MBX-4132 10 MPK, 10 mg/kg)	mouse cfu (Day 4, MBX-4132 10 MPK, 10 mg/kg)
CNC(C)C1CCC(N)C(OC2C(N)CC(N)C(OC3OCC(C)(O)C(NC)C3O)C2O)O1 (stereo not shown) [gentamicin, reference compound]	2.90E+05 CFU/mL and 8.00E+01 CFU/mL and 1.70E+05 CFU/mL and 1.52E+06 CFU/mL and 2.61E+06 CFU/mL and 5.20E+05 CFU/mL and 2.35E+05 CFU/mL and 2.84E+05 CFU/mL and 1.92E+05 CFU/mL and 6.13E+05 CFU/mL and 3.40E+03 CFU/mL and 3.46E+06 CFU/mL and 3.47E+05 CFU/mL and 2.12E+05 CFU/mL and 2.90E+04 CFU/mL and 5.48E+04 CFU/mL and 1.04E+05 CFU/mL and 3.68E+06 CFU/mL and 4.51E+05 CFU/mL and 5.55E+05 CFU/mL	2.00E+01 CFU/mL (8×) and 5.57E+05 CFU/mL and 9.90E+05 CFU/mL and 2.60E+05 CFU/mL and 2.36E+05 CFU/mL and 1.94E+05 CFU/mL and 4.00E+01 CFU/mL and 4.59E+03 CFU/mL and 4.25E+05 CFU/mL and 8.95E+03 CFU/mL and 1.25E+04 CFU/mL and 8.24E+04 CFU/mL and 1.58E+05 CFU/mL	2.00E+01 CFU/mL (9×) and 1.32E+05 CFU/mL and 1.77E+03 CFU/mL and 1.88E+03 CFU/mL and 3.00E+02 CFU/mL and 3.35E+03 CFU/mL and 4.00E+01 CFU/mL and 1.05E+04 CFU/mL and 2.50E+03 CFU/mL and 1.06E+03 CFU/mL and 4.49E+05 CFU/mL and 6.60E+02 CFU/mL	2.00E+01 CFU/mL (15×) and 1.60E+02 CFU/mL and 2.89E+03 CFU/mL and 3.00E+02 CFU/mL and 4.00E+01 CFU/mL and 2.61E+04 CFU/mL	2.00E+01 CFU/mL (16×) and 3.03E+04 CFU/mL and 2.40E+02 CFU/mL and 8.90E+03 CFU/mL and 4.22E+05 CFU/mL	–	–	–	–	–
O=C(Nc1nnc(-c2ccc(F)cc2)o1)N1CCc2ccccc2C1 [MBX-4132]	–	–	–	–	–	2.36E+05 CFU/mL and 2.68E+05 CFU/mL and 6.58E+03 CFU/mL and 2.29E+06 CFU/mL and 9.52E+05 CFU/mL and 5.22E+05 CFU/mL and 1.80E+03 CFU/mL and 2.60E+05 CFU/mL and 3.74E+05 CFU/mL and 1.34E+05 CFU/mL and 1.08E+05 CFU/mL and 6.96E+04 CFU/mL and 7.50E+05 CFU/mL and 7.40E+03 CFU/mL and 3.14E+05 CFU/mL and 1.08E+03 CFU/mL and 8.26E+04 CFU/mL and 3.62E+04 CFU/mL and 9.65E+05 CFU/mL and 3.10E+05 CFU/mL	6.56E+05 CFU/mL and 1.52E+05 CFU/mL and 2.00E+01 CFU/mL (4×) and 3.24E+05 CFU/mL and 5.22E+05 CFU/mL and 6.00E+01 CFU/mL and 8.28E+05 CFU/mL and 2.79E+04 CFU/mL and 3.46E+05 CFU/mL and 3.18E+05 CFU/mL and 1.63E+05 CFU/mL and 9.36E+05 CFU/mL and 5.70E+02 CFU/mL and 7.53E+05 CFU/mL and 3.36E+05 CFU/mL and 3.66E+05 CFU/mL and 4.80E+06 CFU/mL	1.70E+05 CFU/mL and 1.10E+04 CFU/mL and 2.00E+01 CFU/mL (6×) and 1.39E+04 CFU/mL and 6.24E+04 CFU/mL and 4.00E+01 CFU/mL and 1.14E+05 CFU/mL and 1.73E+05 CFU/mL and 4.14E+05 CFU/mL and 5.64E+03 CFU/mL and 2.82E+05 CFU/mL and 4.55E+05 CFU/mL and 1.56E+04 CFU/mL and 8.87E+05 CFU/mL and 3.12E+04 CFU/mL	2.00E+01 CFU/mL (11×) and 1.79E+03 CFU/mL and 8.00E+01 CFU/mL and 9.99E+01 CFU/mL and 4.87E+04 CFU/mL and 3.36E+03 CFU/mL and 1.68E+05 CFU/mL and 4.84E+05 CFU/mL and 5.00E+05 CFU/mL and 9.85E+03 CFU/mL	2.00E+01 CFU/mL (14×) and 1.26E+03 CFU/mL and 3.80E+02 CFU/mL and 6.64E+04 CFU/mL and 9.69E+05 CFU/mL and 2.13E+06 CFU/mL and 1.04E+03 CFU/mL
